This passage reports binding results from patent publication US20240109963A1.

Amino acid sequences for entries named in this document (tags omitted). A change or cut given only in a name is not applied to a line headed by its entry. Chains listed by the source or under a name are the forms on record and can include a tag or linker.
Claudin 18.2 on CHO cells (CHO+ Claudin 18.2) (P56856, form named): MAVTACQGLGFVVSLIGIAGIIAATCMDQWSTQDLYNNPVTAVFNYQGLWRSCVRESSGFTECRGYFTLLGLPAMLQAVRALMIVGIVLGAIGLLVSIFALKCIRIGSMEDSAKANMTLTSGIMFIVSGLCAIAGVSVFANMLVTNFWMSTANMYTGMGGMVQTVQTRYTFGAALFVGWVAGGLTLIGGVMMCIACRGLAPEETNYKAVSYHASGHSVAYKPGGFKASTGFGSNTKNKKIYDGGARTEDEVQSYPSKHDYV

No constants are given. Whether binding was seen depends on the method and setting. Some binding calls cover weakened binding; strength is not graded here.

The assay has as its target Claudin 18.2 on CHO cells (CHO+ Claudin 18.2) (UniProt P56856). Put plainly: flow cytometry, unpurified supernatant on CHO+ Claudin 18.2 cells, PE-positive cells. A general note: In flow cytometry, cells or beads pass a laser one at a time.

B1: Claudin 18.2-3C2 (VHH)
VHH: QVQLVESGGGLVQPGGSLRLSCAASGFTFSNYAMYWVRQAPGKGPEWVSVISGGGGVISYADSVKGRFTISRDNAKNTMYLQMNSLKPEDTAVYYCNAQSAVWWENDYWGQGTQVTVSS
With B1, the binding entry was “binds”.

B2: Claudin 18.2-4G1 (VHH)
VHH: QVQLVESGGGVVQTGGSLRLTCEISGAALSSYTMGWFRQAPGKEREFVAAISWGGSITWYADSVKGRFTISRDNAKNTVYLQMNSLKPEDTAVYYCHAEGQFGALSYPKDYWGQGTQVTVSS
With B2, the binding result is on record as “binds”.
